Source: patent publication US6255073A (priority 1998, dated 2001)
Not every detail of the peptide structures is certain; ends, links or a residue may be inferred. Ends that are not written are not given here.

Test system: HLA B27
Assay: Peptide-induced thermostabilization of HLA B27 on the surface of Drosophila cells (W6/32 cytofluorimetry)
Type: cell-based, human
Conditions: peptide preincubation

FRIGCRHSR [HIV Vpr peptide]
thermal stabilization of surface HLA B27: stabilizes B27
thermal stabilization of surface HLA B27 (listed as FRIGCRHSR): binds and stabilizes
